Record: PubChem BioAssay AID1259405 (NCATS, 2018)
The whole screen tested about 50,000 reagents; below is a part drawn at random. Of all reagents, about 4,000 (8%) got an active call. 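Mouse siRNA library applied to hamster cells; one well for each siRNA.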 Entries without a mark were called inactive. The numbers tell different reagents against one gene apart. No sequences are given here.

- Purpose: 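Knock-downs that lift recombinant protein yield in hamster ovary cells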 (primary screen)
- Cell system: Chinese hamster CHO-K1 ovary cells with stable secreted eGFP expression
- Reagent: single siRNA against mouse genes, 0.8 pmol siRNA per well (2 µl of 400 nM stock)
- Time to read-out: 3 days
- Read-out: 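Per-well intracellular GFP measured by laser scanning cytometry, plus viability from ATP luminescence, each relative to plate median of non-targeting control wells, in %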
- Scale: GFP, % of control: higher = more GFP per well, higher productivity; viability (ATP), % of control: higher = more viable cells (more ATP)
- Rule for the call: 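Called active when intracellular GFP, relative to negative control, is at or above 120%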

Cbx5 (chromobox 5) #1 showed GFP, % of control 94.4; viability (ATP), % of control 74.9.
Silencing of Cbx5 (chromobox 5) #2 came out at: GFP, % of control 81.7; viability (ATP), % of control 55.6.
Silencing of Cbx5 (chromobox 5) #3 came out at: GFP, % of control 63.3; viability (ATP), % of control 61.6.
Silencing of Rps3 (ribosomal protein S3) #1 gave: GFP, % of control 60.5; viability (ATP), % of control 84.9.
After knock-down of Rps3 (ribosomal protein S3) #2, the screen gave GFP, % of control 21.9; viability (ATP), % of control 16.4.
With knock-down of Rps3 (ribosomal protein S3) #3, the screen gave GFP, % of control 118; viability (ATP), % of control 61.6.
For Krt25 (keratin 25) #1 the deposit lists GFP, % of control 59.8; viability (ATP), % of control 68.8.
For Krt25 (keratin 25) #2 the deposit lists GFP, % of control 62.8; viability (ATP), % of control 92.9.
Against Krt25 (keratin 25) #3, the entry reads GFP, % of control 23.8; viability (ATP), % of control 26.6.
Sec14l2 (SEC14-like lipid binding 2) #1 showed GFP, % of control 78.5; viability (ATP), % of control 81.6.
After knock-down of Sec14l2 (SEC14-like lipid binding 2) #2, the record shows GFP, % of control 62.5; viability (ATP), % of control 42.4.
Sec14l2 (SEC14-like lipid binding 2) #3 gave GFP, % of control 63.2; viability (ATP), % of control 88.5.
Depletion of Magea13 (MAGE family member A13) #1 gave: GFP, % of control 40.9; viability (ATP), % of control 46.2.
Silencing of Magea13 (MAGE family member A13) #2 gave: GFP, % of control 55.4; viability (ATP), % of control 75.3.
Silencing of Magea13 (MAGE family member A13) #3 came out at: GFP, % of control 58.1; viability (ATP), % of control 68.
With knock-down of Slit2 (slit guidance ligand 2) #1 the results were GFP, % of control 64.4; viability (ATP), % of control 82.
For Slit2 (slit guidance ligand 2) #2, the entry reads GFP, % of control 56.7; viability (ATP), % of control 61.5.
Slit2 (slit guidance ligand 2) #3 showed GFP, % of control 76.2; viability (ATP), % of control 78.
After knock-down of Snx31 (sorting nexin 31) #1, the screen gave GFP, % of control 67.1; viability (ATP), % of control 83.6.
Silencing of Snx31 (sorting nexin 31) #2 resulted in: GFP, % of control 88.3; viability (ATP), % of control 93.
With knock-down of Snx31 (sorting nexin 31) #3 the results were GFP, % of control 87.4; viability (ATP), % of control 104.
Phf1 (PHD finger protein 1) #1 gave GFP, % of control 43.9; viability (ATP), % of control 56.1.
With knock-down of Phf1 (PHD finger protein 1) #2 the results were GFP, % of control 85.5; viability (ATP), % of control 94.4.
Depletion of Phf1 (PHD finger protein 1) #3 gave: GFP, % of control 76.8; viability (ATP), % of control 71.9.
With knock-down of Tlr6 (toll-like receptor 6) #1, the record shows GFP, % of control 94.9; viability (ATP), % of control 71.8.
Tlr6 (toll-like receptor 6) #2 showed GFP, % of control 76.8; viability (ATP), % of control 59.9.
With knock-down of Tlr6 (toll-like receptor 6) #3 the results were GFP, % of control 67.8; viability (ATP), % of control 60.2.

Look-ups from the entries so far.
Under “viability (ATP), % of control”, Rps3 (ribosomal protein S3) #2 has 16.4
Result for Rps3 (ribosomal protein S3) #1 in “GFP, % of control”: 60.5
For “viability (ATP), % of control”, Slit2 (slit guidance ligand 2) #1 shows 82

Additional results follow:
Lnx2 (ligand of numb-protein X 2) #1 scored GFP, % of control 65.1; viability (ATP), % of control 77.1.
After knock-down of Lnx2 (ligand of numb-protein X 2) #2, the screen gave GFP, % of control 184 (active); viability (ATP), % of control 107.
Depletion of Lnx2 (ligand of numb-protein X 2) #3 gave: GFP, % of control 55; viability (ATP), % of control 96.
Depletion of Synm (synemin, intermediate filament protein) #1 resulted in: GFP, % of control 38.1; viability (ATP), % of control 35.9.
For Synm (synemin, intermediate filament protein) #2, the values are GFP, % of control 64.2; viability (ATP), % of control 77.6.
Depletion of Synm (synemin, intermediate filament protein) #3 resulted in: GFP, % of control 54.2; viability (ATP), % of control 70.
Against Tufm (Tu translation elongation factor, mitochondrial) #1, the entry reads GFP, % of control 74.3; viability (ATP), % of control 88.2.
For Tufm (Tu translation elongation factor, mitochondrial) #2 the deposit lists GFP, % of control 51.6; viability (ATP), % of control 96.4.
Silencing of Uckl1 (uridine-cytidine kinase 1-like 1) #1 resulted in: GFP, % of control 68.4; viability (ATP), % of control 59.2.
Knock-down of Uckl1 (uridine-cytidine kinase 1-like 1) #2 gave: GFP, % of control 104; viability (ATP), % of control 73.3.
With knock-down of Uckl1 (uridine-cytidine kinase 1-like 1) #3, the screen gave GFP, % of control 69.1; viability (ATP), % of control 62.9.
With knock-down of Or2g25 (olfactory receptor family 2 subfamily G member 25) #1 the results were GFP, % of control 146 (active); viability (ATP), % of control 68.
With knock-down of Or2g25 (olfactory receptor family 2 subfamily G member 25) #2 the results were GFP, % of control 93.1; viability (ATP), % of control 86.
Or2g25 (olfactory receptor family 2 subfamily G member 25) #3 showed GFP, % of control 74.2; viability (ATP), % of control 85.9.
Against Ric8b (RIC8 guanine nucleotide exchange factor B) #1, the values are GFP, % of control 97.5; viability (ATP), % of control 92.5.
Knock-down of Ric8b (RIC8 guanine nucleotide exchange factor B) #2 gave: GFP, % of control 15.7; viability (ATP), % of control 23.5.
With knock-down of Ric8b (RIC8 guanine nucleotide exchange factor B) #3 the results were GFP, % of control 60.1; viability (ATP), % of control 82.2.
Against Clic4 (chloride intracellular channel 4) #1 the deposit lists GFP, % of control 100; viability (ATP), % of control 140.
For Clic4 (chloride intracellular channel 4) #2 the deposit lists GFP, % of control 84.8; viability (ATP), % of control 77.9.
Clic4 (chloride intracellular channel 4) #3 gave GFP, % of control 28.1; viability (ATP), % of control 18.2.
Depletion of Vash2 (vasohibin 2) #1 resulted in: GFP, % of control 80; viability (ATP), % of control 39.9.
After knock-down of Vash2 (vasohibin 2) #2 the results were GFP, % of control 66.1; viability (ATP), % of control 62.4.
With knock-down of Vash2 (vasohibin 2) #3, the record shows GFP, % of control 115; viability (ATP), % of control 138.
Against Ppcs (phosphopantothenoylcysteine synthetase) #1, the entry reads GFP, % of control 80.8; viability (ATP), % of control 52.5.
Ppcs (phosphopantothenoylcysteine synthetase) #2 gave GFP, % of control 61; viability (ATP), % of control 41.8.
Silencing of Ppcs (phosphopantothenoylcysteine synthetase) #3 came out at: GFP, % of control 75.2; viability (ATP), % of control 63.2.
